Results on two substances are retold here after article PMC11178498.

By UniProt entry, the sequences of proteins in these tests, tags left out.
UniProt Q8TEK3: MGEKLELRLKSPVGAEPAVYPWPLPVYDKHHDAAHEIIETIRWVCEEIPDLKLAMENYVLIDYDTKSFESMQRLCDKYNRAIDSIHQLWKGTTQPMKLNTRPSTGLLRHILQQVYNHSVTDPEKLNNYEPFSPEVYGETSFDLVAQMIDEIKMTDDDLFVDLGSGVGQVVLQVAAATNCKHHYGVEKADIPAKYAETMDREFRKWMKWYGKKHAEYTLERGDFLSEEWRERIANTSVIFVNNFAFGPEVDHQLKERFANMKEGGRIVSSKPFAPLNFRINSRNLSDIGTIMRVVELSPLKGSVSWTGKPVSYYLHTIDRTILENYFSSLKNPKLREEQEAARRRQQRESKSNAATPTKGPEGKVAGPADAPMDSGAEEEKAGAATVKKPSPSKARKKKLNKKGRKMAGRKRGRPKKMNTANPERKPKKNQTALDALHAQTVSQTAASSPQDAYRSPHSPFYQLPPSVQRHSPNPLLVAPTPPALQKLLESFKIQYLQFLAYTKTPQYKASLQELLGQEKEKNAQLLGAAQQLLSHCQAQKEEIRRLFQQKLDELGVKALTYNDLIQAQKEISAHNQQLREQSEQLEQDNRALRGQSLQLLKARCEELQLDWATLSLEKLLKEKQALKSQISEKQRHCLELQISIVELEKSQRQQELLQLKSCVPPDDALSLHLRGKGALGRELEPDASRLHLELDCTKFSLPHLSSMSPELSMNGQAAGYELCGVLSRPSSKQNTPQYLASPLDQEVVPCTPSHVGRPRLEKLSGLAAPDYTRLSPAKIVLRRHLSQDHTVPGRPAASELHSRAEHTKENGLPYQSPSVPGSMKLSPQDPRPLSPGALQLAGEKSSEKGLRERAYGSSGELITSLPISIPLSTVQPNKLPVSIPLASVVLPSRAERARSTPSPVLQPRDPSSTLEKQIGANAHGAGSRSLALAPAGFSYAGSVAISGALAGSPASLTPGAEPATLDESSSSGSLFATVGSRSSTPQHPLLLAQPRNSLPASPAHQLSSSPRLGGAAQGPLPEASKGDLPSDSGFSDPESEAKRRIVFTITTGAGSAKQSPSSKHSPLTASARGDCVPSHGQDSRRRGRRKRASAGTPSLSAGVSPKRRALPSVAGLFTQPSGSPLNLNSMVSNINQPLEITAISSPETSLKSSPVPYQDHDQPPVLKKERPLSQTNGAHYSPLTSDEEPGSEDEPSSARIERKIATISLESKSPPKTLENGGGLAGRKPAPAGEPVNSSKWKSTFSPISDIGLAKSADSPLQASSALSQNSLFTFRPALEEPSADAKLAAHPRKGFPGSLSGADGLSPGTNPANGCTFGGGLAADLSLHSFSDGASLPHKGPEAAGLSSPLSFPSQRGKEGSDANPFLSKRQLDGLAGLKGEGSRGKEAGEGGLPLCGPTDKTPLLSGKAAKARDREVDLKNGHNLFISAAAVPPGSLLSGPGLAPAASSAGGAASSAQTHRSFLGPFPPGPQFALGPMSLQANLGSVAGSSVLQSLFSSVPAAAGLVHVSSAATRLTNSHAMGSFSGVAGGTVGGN
UniProt Q92793: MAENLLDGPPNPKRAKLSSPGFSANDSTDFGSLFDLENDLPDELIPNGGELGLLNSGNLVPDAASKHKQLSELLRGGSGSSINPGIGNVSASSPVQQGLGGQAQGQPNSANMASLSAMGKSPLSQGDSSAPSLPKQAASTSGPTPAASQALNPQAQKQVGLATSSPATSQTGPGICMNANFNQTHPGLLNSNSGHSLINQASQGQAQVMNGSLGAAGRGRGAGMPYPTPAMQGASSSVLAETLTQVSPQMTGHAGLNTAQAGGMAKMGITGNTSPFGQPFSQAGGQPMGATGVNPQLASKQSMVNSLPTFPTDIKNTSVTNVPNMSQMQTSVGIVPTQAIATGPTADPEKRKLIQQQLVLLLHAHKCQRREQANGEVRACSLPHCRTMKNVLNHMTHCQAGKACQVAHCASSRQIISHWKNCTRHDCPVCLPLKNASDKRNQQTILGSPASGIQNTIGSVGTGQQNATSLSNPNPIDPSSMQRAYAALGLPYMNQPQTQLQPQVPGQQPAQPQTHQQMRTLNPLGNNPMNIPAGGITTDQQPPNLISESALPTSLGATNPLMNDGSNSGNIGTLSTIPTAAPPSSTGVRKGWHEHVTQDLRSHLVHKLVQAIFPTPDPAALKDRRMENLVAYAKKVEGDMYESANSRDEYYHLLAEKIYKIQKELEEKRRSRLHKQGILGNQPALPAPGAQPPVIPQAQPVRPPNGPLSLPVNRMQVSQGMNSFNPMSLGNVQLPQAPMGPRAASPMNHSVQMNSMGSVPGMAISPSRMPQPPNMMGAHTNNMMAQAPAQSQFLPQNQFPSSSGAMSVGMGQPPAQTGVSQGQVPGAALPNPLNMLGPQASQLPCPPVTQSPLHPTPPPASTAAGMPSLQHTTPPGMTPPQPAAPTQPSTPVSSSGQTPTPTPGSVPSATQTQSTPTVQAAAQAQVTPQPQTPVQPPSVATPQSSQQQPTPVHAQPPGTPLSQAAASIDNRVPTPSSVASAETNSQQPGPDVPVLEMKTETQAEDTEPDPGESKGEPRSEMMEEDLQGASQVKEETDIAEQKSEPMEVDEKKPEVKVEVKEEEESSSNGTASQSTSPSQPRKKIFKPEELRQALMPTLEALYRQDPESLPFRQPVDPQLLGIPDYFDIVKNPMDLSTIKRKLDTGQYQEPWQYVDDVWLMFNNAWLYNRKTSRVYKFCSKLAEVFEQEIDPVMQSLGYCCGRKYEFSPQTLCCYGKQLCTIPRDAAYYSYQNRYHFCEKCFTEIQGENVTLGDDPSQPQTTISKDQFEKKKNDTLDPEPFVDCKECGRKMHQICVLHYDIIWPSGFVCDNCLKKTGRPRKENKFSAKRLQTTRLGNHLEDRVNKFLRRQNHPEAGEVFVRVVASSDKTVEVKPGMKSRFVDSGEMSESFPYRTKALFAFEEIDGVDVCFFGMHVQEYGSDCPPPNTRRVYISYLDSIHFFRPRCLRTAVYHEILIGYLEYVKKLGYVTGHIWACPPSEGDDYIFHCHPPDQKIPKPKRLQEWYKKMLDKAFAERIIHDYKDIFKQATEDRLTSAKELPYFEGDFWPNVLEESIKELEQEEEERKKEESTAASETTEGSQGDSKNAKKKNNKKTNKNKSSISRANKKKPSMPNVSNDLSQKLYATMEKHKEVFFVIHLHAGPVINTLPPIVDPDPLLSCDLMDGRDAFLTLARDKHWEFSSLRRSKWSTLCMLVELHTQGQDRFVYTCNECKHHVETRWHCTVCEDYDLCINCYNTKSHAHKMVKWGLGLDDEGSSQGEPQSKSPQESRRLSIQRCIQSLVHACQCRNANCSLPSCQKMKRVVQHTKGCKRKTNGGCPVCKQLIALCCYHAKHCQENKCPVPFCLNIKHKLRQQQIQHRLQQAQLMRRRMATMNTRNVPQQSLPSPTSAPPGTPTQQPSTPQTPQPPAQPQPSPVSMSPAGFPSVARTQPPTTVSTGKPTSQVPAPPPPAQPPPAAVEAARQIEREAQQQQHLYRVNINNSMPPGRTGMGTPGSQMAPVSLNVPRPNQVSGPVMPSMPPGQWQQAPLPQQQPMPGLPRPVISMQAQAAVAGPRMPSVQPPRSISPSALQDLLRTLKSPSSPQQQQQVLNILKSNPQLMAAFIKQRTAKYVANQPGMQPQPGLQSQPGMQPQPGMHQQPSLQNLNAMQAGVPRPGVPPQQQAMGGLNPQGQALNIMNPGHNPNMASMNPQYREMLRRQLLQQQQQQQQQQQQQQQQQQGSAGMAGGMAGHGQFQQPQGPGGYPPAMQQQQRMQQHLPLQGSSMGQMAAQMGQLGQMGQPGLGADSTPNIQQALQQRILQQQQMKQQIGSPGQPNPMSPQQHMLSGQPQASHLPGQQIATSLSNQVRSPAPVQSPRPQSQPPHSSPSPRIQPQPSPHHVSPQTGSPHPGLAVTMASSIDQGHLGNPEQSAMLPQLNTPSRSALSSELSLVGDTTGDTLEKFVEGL

No constants are given. Whether binding was seen depends on the method and setting. Binding seen in cells or lysates may run through a third protein. Some results given as binding are weak or reduced against the parent protein; the word gives no strength.

Test [1] deals with DOT1L (disruptor of telomeric silencing one like), endogenous (human (endogenous in MOLM-13 and MV4-11)) (UniProt Q8TEK3). Kind of test: co-IP; endogenous proteins; MOLM-13 and MV4-11 cell lysates, IP with CBP, DOT1L or control IgG, protein A/G agarose, western blotting. In general terms: Immunoblotting shows a protein as a band on a membrane.
In test [2] the target is CBP (CREB binding protein), endogenous (human (endogenous in MOLM-13 and MV4-11)) (UniProt Q92793). The test is described as above.

Turning to “CBP (CREB binding protein), endogenous (from UniProt Q92793 1-2442)”, the binding result in test [1] is “binds”.

Take “DOT1L (disruptor of telomeric silencing one like), endogenous (from UniProt Q8TEK3 1-1537)”: the binding result in test [2] is “binds”.
